# Test results: patent US11964949B2, “Substituted phenyloxazolidinones for antimicrobial therapy” (priority 2015, dated 2024)
# At least one structure is not confirmed: it was looked up by name or label, or the drawing left a doubt.
# Test system: mitochondrial protein synthesis (MPS) in H9C2 cells
# Assay: In vitro assay for MPS inhibition (COX-1 / SDH-A ELISA in H9C2 cells)
# Assay type: cell-based, rat
# Conditions: 5 days incubation
structure (smiles),measurement,value
O=C(NC[C@H]1CN(c2ccc(N3CC4(CSC4)C3)c(F)c2)C(=O)O1)C1CCC1 [OTB-250],IC50 (μM) MPS inhibition,10->100
